Data source: PubChem BioAssay AID1259308 (NCATS, 2017)
Shown is one part, drawn at random, of about 59,000 deposited reagents. About 1,510 of all reagents (2.6%) count as active. 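Calls use total luciferase alone and ignore viability, so some active siRNAs may act by altering cell number.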 Entries without a mark were called inactive. Not all columns of the deposit are shown.

Screen: 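Knock-downs that increase output of a recombinant reporter protein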 (primary screen)
Cells: human HEK293 embryonic kidney cells stably expressing firefly luciferase (HEK-CMV-Luc2-Hygro)
Reagents: single siRNA against human genes, 0.8 pmol siRNA per well
Timing: 72 h
Read-out: 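Luciferase light (ONE-Glo) measured on one replicate plate set and viability (CellTiter-Glo) on the other, scaled to a negative control siRNA, with robust z-scores and luciferase per cell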
Reading the numbers: total luciferase, z-score and total luciferase, % of control: higher = more reporter protein produced
Rule for the call: 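An siRNA counts as active if its total luciferase robust z-score exceeds 3; genes with two or more such siRNAs out of three were retested with fresh siRNAs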
Meaning of the calls: active = raised luciferase; inactive = no rise

After knock-down of MXRA8 [SID160741958], the record shows total luciferase, z-score 0.94; total luciferase, % of control 101.
Knock-down of MXRA8 [SID160741959] resulted in: total luciferase, z-score 3.1 (active); total luciferase, % of control 143.
Depletion of MXRA8 [SID160741960] resulted in: total luciferase, z-score -1.78; total luciferase, % of control 46.5.
SNAPC3 [SID160717094] gave total luciferase, z-score -0.401; total luciferase, % of control 73.9.
Depletion of SNAPC3 [SID160717095] resulted in: total luciferase, z-score -0.266; total luciferase, % of control 76.6.
SNAPC3 [SID160717096] scored total luciferase, z-score 0.639; total luciferase, % of control 94.6.
Depletion of SULT1E1 [SID160717463] came out at: total luciferase, z-score -1.19; total luciferase, % of control 58.3.
SULT1E1 [SID160717464] gave total luciferase, z-score -1.19; total luciferase, % of control 58.3.
Knock-down of SULT1E1 [SID160731804] resulted in: total luciferase, z-score 1.01; total luciferase, % of control 102.
After knock-down of OR7A17 [SID160737948] the results were total luciferase, z-score -0.961; total luciferase, % of control 62.8.
Knock-down of OR7A17 [SID160737949] gave: total luciferase, z-score 0.296; total luciferase, % of control 87.8.
With knock-down of OR7A17 [SID160737950] the results were total luciferase, z-score -0.825; total luciferase, % of control 65.5.
Silencing of STMND1 [SID160733334] came out at: total luciferase, z-score -0.377; total luciferase, % of control 74.4.
With knock-down of STMND1 [SID160767208], the record shows total luciferase, z-score -0.0768; total luciferase, % of control 80.4.
Silencing of STMND1 [SID160767209] resulted in: total luciferase, z-score 0.265; total luciferase, % of control 87.2.
Against ENTHD1 [SID160758951], the entry reads total luciferase, z-score 1.86; total luciferase, % of control 119.
After knock-down of ENTHD1 [SID160758953] the results were total luciferase, z-score -0.473; total luciferase, % of control 72.5.
For ENTHD1 [SID160758954] the deposit lists total luciferase, z-score 0.264; total luciferase, % of control 87.1.
With knock-down of DAND5 [SID160760736] the results were total luciferase, z-score -0.982; total luciferase, % of control 62.3.
Depletion of DAND5 [SID160760737] gave: total luciferase, z-score -0.116; total luciferase, % of control 79.6.
Silencing of DAND5 [SID160760738] gave: total luciferase, z-score 1.84; total luciferase, % of control 119.
After knock-down of CPXM1 [SID160744996], the screen gave total luciferase, z-score 0.747; total luciferase, % of control 96.7.
CPXM1 [SID160744997] gave total luciferase, z-score -0.704; total luciferase, % of control 67.9.
With knock-down of CPXM1 [SID160744998], the record shows total luciferase, z-score 2.76; total luciferase, % of control 137.
After knock-down of CYP3A5 [SID160751712], the record shows total luciferase, z-score 2.14; total luciferase, % of control 124.
CYP3A5 [SID160751724] showed total luciferase, z-score -0.00189; total luciferase, % of control 81.8.
Depletion of CYP3A5 [SID160751735] gave: total luciferase, z-score -0.658; total luciferase, % of control 68.8.
B9D1 [SID160738334] scored total luciferase, z-score -0.748; total luciferase, % of control 67.
Depletion of B9D1 [SID160738335] came out at: total luciferase, z-score -0.95; total luciferase, % of control 63.
With knock-down of B9D1 [SID160738336] the results were total luciferase, z-score -1.13; total luciferase, % of control 59.4.
GABRA2 [SID160768333] gave total luciferase, z-score 0.491; total luciferase, % of control 91.7.
Depletion of GABRA2 [SID160768344] came out at: total luciferase, z-score -0.786; total luciferase, % of control 66.3.
Knock-down of GABRA2 [SID160768355] gave: total luciferase, z-score -0.782; total luciferase, % of control 66.3.

4 entries from above in another layout.
target | PubChem SID | total luciferase, z-score | total luciferase, % of control
OR7A17 | SID160737949 | 0.296 | 87.8
OR7A17 | SID160737950 | -0.825 | 65.5
STMND1 | SID160733334 | -0.377 | 74.4
STMND1 | SID160767208 | -0.0768 | 80.4
